PubChem BioAssay AID1508588 | Peter MacCallum Cancer Centre | 2020

Assay: 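Genome-wide search for knock-downs that heighten vemurafenib action in melanoma cells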 (primary screen)
System: human WM266.4 melanoma cells (BRAF V600 mutant)
Reagent: siRNA pool against human genes, 40 nM
Duration: 96 h from transfection to read-out
Conditions: vemurafenib 300 nM (about IC25), added 48 h after transfection, for 48 h; comparison arm got DMSO vehicle only
Measured: 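Cell gain (DAPI nuclei at end minus before drug, mean of two replicates) and medium lactate by absorbance per cell, both as ratio to non-targeting siRNA, also grouped into fold-change classes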
Direction: cell gain with vemurafenib: higher = more cell gain than with non-targeting siRNA; lactate per cell with vemurafenib: higher = more lactate made per cell
Call rule: 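a knock-down counts as enhancing when its fold-change classes with vehicle and with vemurafenib, taken together, show a stronger drug effect on cell gain or lactate per cell; exact class pairs not stated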
Calls: active = enhances vemurafenib effect; inactive = no enhancement seen
In all, the deposit lists about 18,000 reagents; shown is an unselected part. 790 of all reagents (4.4%) were called active. 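Calls rest on a combination of fold-change classes in drug and vehicle arms, not all shown here.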

| gene symbol | cell gain with vemurafenib | lactate per cell with vemurafenib | activity call |
| --- | --- | --- | --- |
| EGFLAM (EGF like, fibronectin type III and laminin G domains) | 0.47 | 0.92 | inactive |
| TSKU (tsukushi, small leucine rich proteoglycan) | 0.84 | 0.73 | inactive |
| SEMA6C (semaphorin 6C) | 0.57 | 0.87 | inactive |
| TOGARAM2 (TOG array regulator of axonemal microtubules 2) | 0.38 | 0.57 | inactive |
| CDSN (corneodesmosin) | 0.73 | 0.26 | inactive |
| SF3B3 (splicing factor 3b subunit 3) | 0 | 2.18 | inactive |
| CACNB1 (calcium voltage-gated channel auxiliary subunit beta 1) | 0.16 | 0.46 | active |
| PRR5-ARHGAP8 (PRR5-ARHGAP8 readthrough) | 1.11 | 1.78 | inactive |
| SH2D1A (SH2 domain containing 1A) | 0.76 | 1.03 | inactive |
| UBE2G2 (ubiquitin conjugating enzyme E2 G2) | 0.37 | 1.54 | inactive |
| OR5H6 (olfactory receptor family 5 subfamily H member 6) | 0.95 | 1.03 | inactive |
| ERN2 (endoplasmic reticulum to nucleus signaling 2) | 0.83 | 0.64 | inactive |
| SPEG (striated muscle enriched protein kinase) | 0.37 | 0.82 | inactive |
| OR4F29 (olfactory receptor family 4 subfamily F member 29) | 0.33 | 1.83 | inactive |
| PCDHA5 (protocadherin alpha 5) | 0.95 | 0.99 | inactive |
| NOTCH3 (notch receptor 3) | 1.14 | 0.8 | inactive |
| ZBTB26 (zinc finger and BTB domain containing 26) | 0.72 | 0.46 | active |
| UCN2 (urocortin 2) | 0.35 | 2.2 | inactive |
| LINC01599 (long independently transcribed non-coding RNA 1599) | 0.41 | 0.75 | inactive |
| HSFY1 (heat shock transcription factor Y-linked 1) | 0.86 | 0.91 | inactive |

Not a retest: an excerpt of the list.
| gene symbol | cell gain with vemurafenib | lactate per cell with vemurafenib | activity call |
| --- | --- | --- | --- |
| EGFLAM (EGF like, fibronectin type III and laminin G domains) | 0.47 | 0.92 | inactive |
| TSKU (tsukushi, small leucine rich proteoglycan) | 0.84 | 0.73 | inactive |
| SEMA6C (semaphorin 6C) | 0.57 | 0.87 | inactive |
| TOGARAM2 (TOG array regulator of axonemal microtubules 2) | 0.38 | 0.57 | inactive |
| CDSN (corneodesmosin) | 0.73 | 0.26 | inactive |

The listing continues:
| gene symbol | cell gain with vemurafenib | lactate per cell with vemurafenib | activity call |
| --- | --- | --- | --- |
| PCDH9 (protocadherin 9) | 0.66 | 0.28 | active |
| TES (testin LIM domain protein) | 0.04 | 0.22 | inactive |
| CD22 (CD22 molecule) | 0.56 | 0.5 | inactive |
| LRRC66 (leucine rich repeat containing 66) | 0.82 | 1.15 | inactive |
| PEMT (phosphatidylethanolamine N-methyltransferase) | 0.37 | 0.23 | inactive |
| GIMAP7 (GTPase, IMAP family member 7) | 0.38 | 0.96 | inactive |
| GPR157 (G protein-coupled receptor 157) | -0.02 | 0.3 | active |
| GRK3 (G protein-coupled receptor kinase 3) | 0.95 | 0.87 | inactive |
| TMTC2 (transmembrane O-mannosyltransferase targeting cadherins 2) | 0.01 | 0.55 | inactive |
| FEM1B (fem-1 homolog B) | 0.93 | 0.92 | inactive |
| ENG (endoglin) | 0.76 | 0.81 | inactive |
| TRAPPC14 (trafficking protein particle complex subunit 14) | 0.17 | 0.85 | inactive |
| AGFG2 (ArfGAP with FG repeats 2) | 0.42 | 0.52 | inactive |
| AKAP11 (A-kinase anchoring protein 11) | 0.22 | 0.03 | inactive |
| GPD1L (glycerol-3-phosphate dehydrogenase 1 like) | 0.28 | 2.34 | inactive |
| MTCL3 (MTCL family member 3) | 0.88 | 0.7 | inactive |
| ANKRD33 (ankyrin repeat domain 33) | 0.64 | 1.21 | inactive |
| MBD6 (methyl-CpG binding domain protein 6) | 0.85 | 0.62 | inactive |
| MORN3 (MORN repeat containing 3) | 1 | 0.55 | inactive |
| COXFA4 (cytochrome c oxidase associated subunit FA4) | 0.87 | 1.38 | inactive |
| SCGB1C1 (secretoglobin family 1C member 1) | 0.47 | 0.67 | inactive |
| APCDD1 (APC down-regulated 1) | 0.91 | 0.52 | inactive |
| IL33R (interleukin 33 receptor) | 1.11 | 0.62 | inactive |
| ZNF124 (zinc finger protein 124) | 1.25 | 0.74 | inactive |
| ELK1 (ETS transcription factor ELK1) | 0.1 | 2.27 | inactive |
| YOD1 (YOD1 deubiquitinase) | 0.45 | 0.81 | inactive |
| SUCLG1 (succinate-CoA ligase GDP/ADP-forming subunit alpha) | 0.61 | 0.97 | inactive |
| USP28 (ubiquitin specific peptidase 28) | 1.27 | 0.62 | inactive |
| PLCL2 (phospholipase C like 2) | 0.79 | 1.42 | inactive |
| LDAH (lipid droplet associated hydrolase) | 0.6 | 0.87 | inactive |
| OR2C1 (olfactory receptor family 2 subfamily C member 1) | 0.49 | 0.76 | inactive |
| SLC38A9 | 0.84 | 0.6 | inactive |
| MARK2 (microtubule affinity regulating kinase 2) | 0.87 | 1.04 | inactive |
| LINC01973 (long independently transcribed non-coding RNA 1973) | 0.68 | 1.2 | inactive |
| OR2G6 (olfactory receptor family 2 subfamily G member 6) | 0.53 | 1.82 | inactive |
| SLC25A24 | 0.84 | 0.52 | inactive |
| MASP2 (MBL associated serine protease 2) | 0.46 | 0.67 | inactive |
